The other results are listed elsewhere or left out.
Assays:
Experiment in all cases: log2 fold change, soluble protein after heating vs DMSO (PISA); higher = thermal stabilisation; K562 lysate, 10 uM; active = over 0.2 and 3.5 SD of the protein, either way, in both replicates (recomputed)
[1] = compound: Cc1cc(Nc2cc(N3CCN(C)CC3)nc(Sc3ccc(NC(=O)C4CC4)cc3)n2)n[nH]1 [tozasertib]
Procedure, shortened: (§1)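 Dounce homogenisation of K562 pellets in PBS pH 7.4 with 1 mM MgCl2 produced a crude extract, used at 1 mg/mL protein. Exposure to 10 μM compound lasted 30 min, and aliquots were then heated for 3 min across 48°C-58°C, pooled and brought to 0.5% NP-40 at 4°C. The supernatant after 21,000xg for 90 min was quantified by TMTpro 16plex LC-MS/MS with channel sums equalised. Duplicate values are given as log-two fold change in thermal stability relative to solvent controls.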

Chains of the proteins cited; added tags and fusions are not shown. Lines headed by an entry give the natural chain unless they say otherwise; changes in a name come on top.
UniProt Q9UKA2: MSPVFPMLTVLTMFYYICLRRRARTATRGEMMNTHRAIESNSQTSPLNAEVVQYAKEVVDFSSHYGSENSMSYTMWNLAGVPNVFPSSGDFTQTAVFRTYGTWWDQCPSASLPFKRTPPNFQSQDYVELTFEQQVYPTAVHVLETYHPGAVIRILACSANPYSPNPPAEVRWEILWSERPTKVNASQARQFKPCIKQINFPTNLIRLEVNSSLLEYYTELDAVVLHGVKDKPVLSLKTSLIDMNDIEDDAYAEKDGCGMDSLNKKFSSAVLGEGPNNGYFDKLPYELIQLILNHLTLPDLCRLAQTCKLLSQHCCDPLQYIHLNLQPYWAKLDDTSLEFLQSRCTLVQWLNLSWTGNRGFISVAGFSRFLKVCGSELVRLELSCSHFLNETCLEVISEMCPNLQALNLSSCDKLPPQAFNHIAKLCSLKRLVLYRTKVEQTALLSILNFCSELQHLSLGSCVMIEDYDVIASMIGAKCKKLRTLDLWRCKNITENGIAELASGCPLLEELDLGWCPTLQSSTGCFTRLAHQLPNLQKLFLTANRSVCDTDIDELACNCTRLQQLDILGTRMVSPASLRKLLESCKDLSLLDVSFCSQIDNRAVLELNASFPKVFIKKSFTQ
UniProt P31994: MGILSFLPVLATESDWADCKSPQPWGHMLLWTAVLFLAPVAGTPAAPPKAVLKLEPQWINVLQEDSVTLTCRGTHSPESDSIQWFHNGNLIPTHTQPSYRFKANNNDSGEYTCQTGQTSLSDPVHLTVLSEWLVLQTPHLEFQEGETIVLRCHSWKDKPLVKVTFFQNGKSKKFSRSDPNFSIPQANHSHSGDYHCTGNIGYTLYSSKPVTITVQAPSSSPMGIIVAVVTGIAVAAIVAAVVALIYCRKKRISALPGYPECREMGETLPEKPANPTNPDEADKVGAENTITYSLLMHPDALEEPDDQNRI
UniProt Q14CZ7: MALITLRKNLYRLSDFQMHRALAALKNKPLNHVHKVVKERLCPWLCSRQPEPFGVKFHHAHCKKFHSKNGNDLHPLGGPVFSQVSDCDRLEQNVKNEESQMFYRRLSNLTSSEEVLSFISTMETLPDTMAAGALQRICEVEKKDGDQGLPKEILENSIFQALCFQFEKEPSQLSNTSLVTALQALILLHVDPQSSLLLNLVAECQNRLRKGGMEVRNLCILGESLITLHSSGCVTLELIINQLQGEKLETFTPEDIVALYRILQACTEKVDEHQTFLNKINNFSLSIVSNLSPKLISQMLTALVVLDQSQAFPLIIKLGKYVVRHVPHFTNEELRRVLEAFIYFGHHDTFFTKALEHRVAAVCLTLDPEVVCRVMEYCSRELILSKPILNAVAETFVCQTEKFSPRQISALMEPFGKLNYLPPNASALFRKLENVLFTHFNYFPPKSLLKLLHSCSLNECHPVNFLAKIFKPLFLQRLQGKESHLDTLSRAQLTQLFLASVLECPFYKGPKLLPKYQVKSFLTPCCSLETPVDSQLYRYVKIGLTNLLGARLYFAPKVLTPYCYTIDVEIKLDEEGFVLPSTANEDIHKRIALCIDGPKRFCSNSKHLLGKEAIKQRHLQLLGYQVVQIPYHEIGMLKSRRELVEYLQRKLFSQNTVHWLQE
UniProt Q9H469: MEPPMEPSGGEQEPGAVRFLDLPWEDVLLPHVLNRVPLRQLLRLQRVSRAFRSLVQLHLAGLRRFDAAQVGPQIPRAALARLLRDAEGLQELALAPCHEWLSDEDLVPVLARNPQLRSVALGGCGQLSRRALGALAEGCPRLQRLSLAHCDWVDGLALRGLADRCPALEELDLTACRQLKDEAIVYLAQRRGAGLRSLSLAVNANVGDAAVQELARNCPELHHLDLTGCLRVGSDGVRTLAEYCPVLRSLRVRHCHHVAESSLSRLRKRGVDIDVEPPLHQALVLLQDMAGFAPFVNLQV

[2] = compound: Cc1cn(-c2cc(NC(=O)c3ccc(C)c(Nc4nccc(-c5cccnc5)n4)c3)cc(C(F)(F)F)c2)cn1 [nilotinib]
Procedure, shortened: as §1

[3] = compound: Cc1nc(Nc2n[nH]c3c2CN(C(=O)N[C@H](CN(C)C)c2ccccc2)C3(C)C)c2sccc2n1
Procedure, shortened: as §1

[4] = compound: Cc1ncc(-c2ccnc(Nc3ccc(S(C)(=O)=O)cc3)n2)n1C(C)C
Procedure, shortened: as §1

[5] = compound: Cn1cncc1[C@@](N)(c1ccc(Cl)cc1)c1ccc2c(c1)c(-c1cccc(Cl)c1)cc(=O)n2C [tipifarnib]
Procedure, shortened: as §1

[6] = compound: NC1(c2ccc(-c3nc4ccn5c(=O)[nH]nc5c4cc3-c3ccccc3)cc2)CCC1
Procedure, shortened: as §1

[7] = compound: C[C@@H](Oc1cc(-c2cnn(C3CCNCC3)c2)cnc1N)c1c(Cl)ccc(F)c1Cl [crizotinib]
Procedure, shortened: as §1

[8] = compound: Cc1ccc(-n2nc(C(C)(C)C)cc2NC(=O)Nc2ccc(OCCN3CCOCC3)c3ccccc23)cc1 [doramapimod]
Procedure, shortened: as §1

[9] = compound: Cn1cc(CNCC2CCN(c3ncc(C(=O)NO)cn3)CC2)c2ccccc21 [quisinostat]
Procedure, shortened: as §1

[10] = compound: NC(=O)Nc1cc(-c2cccc(F)c2)sc1C(=O)N[C@H]1CCCNC1
Procedure, shortened: as §1

[11] = compound: CS(=O)(=O)CCNCc1ccc(-c2ccc3ncnc(Nc4ccc(OCc5cccc(F)c5)c(Cl)c4)c3c2)o1 [lapatinib]
Procedure, shortened: as §1

[12] = compound: NC(=O)c1cnc(N[C@@H]2CCCC[C@@H]2N)nc1Nc1cccc(-n2nccn2)c1
Procedure, shortened: as §1

[13] = compound: C[C@H](C1=CC=C(C=C1)C(=O)NC2=C3C=CNC3=NC=C2)N
Procedure, shortened: as §1

[14] = compound: C[C@H](Nc1ncnc2nc[nH]c12)c1cc2cccc(Cl)c2c(=O)n1-c1ccccc1 [duvelisib]
Procedure, shortened: as §1

[15] = compound: Cc1cc(Nc2cc(CN3CCOCC3)c3nc(C)c(Cc4ccc(Cl)cc4F)n3n2)n[nH]1 [gandotinib]
Procedure, shortened: as §1

[16] = compound: Cc1cccc(CC(=O)N2CCc3c2ccc(-c2cn(C)c4ncnc(N)c24)c3F)n1
Procedure, shortened: as §1

[17] = compound: Cc1nc(Nc2ncc(C(=O)Nc3c(C)cccc3Cl)s2)cc(N2CCN(CCO)CC2)n1 [dasatinib]
Procedure, shortened: as §1

[18] = compound: Cn1cc(-c2ccc3c(c2)CCN3C(=O)Cc2cccc(C(F)(F)F)c2)c2c(N)ncnc21
Procedure, shortened: as §1

Measured: log2 fold change

FBXL4 (UniProt Q9UKA2)
inactive: [1] -0.032 | [2] 0.005 | [3] 0.185 | [4] 0.049 | [5] 0.019 | [6] 0.097

FCGR2B (UniProt P31994)
inactive: [7] -0.012 | [1] 0.276 | [8] 0.052 | [9] -0.057 | [10] 0.18

FASTKD3 (UniProt Q14CZ7)
inactive: [11] 0.182 | [1] -0.144 | [2] -0.155 | [3] -0.047 | [4] -0.067 | [5] -0.128 | [12] -0.011

FBXL15 (UniProt Q9H469)
inactive: [7] 0 | [13] -0.098 | [14] -0.025 | [15] 0.217 | [1] -0.048 | [8] 0.022 | [16] 0.063 | [2] -0.003 | [3] 0.034 | [17] 0 | [4] -0.014 | [18] 0.051 | [9] -0.099 | [5] 0.017 | [10] -0.014

Reference: the supplement of paper PMC10849652
